Here are results for ten compounds from the supplement of paper PMC10689618.

Test [1] relates to Human fetal astrocytes. As to the kind of experiment: loss of total cells relative to no-compound high-control median (toxicity); higher = more toxic (fewer cells). As to conditions: 24 h.
Test [2] relates to Human fetal astrocytes. As to the kind of experiment: synaptosome phagocytosis (pHrodo/calcein intensity ratio) relative to plate median of data wells; higher = more phagocytosis. As to conditions: 24 h.

Counter-ions that a name gives are not always drawn. Some of the results follow. Many values rest on one well or one pass, so single values are uncertain.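 Labelled rat cortical synaptosomes were engulfed by primary human fetal astrocytes. Engulfment equaled a red/green ratio, corrected for calcein live-cell signal and normalized to the plate median. Compounds were toxic when calcein dropped over 30%, and reduced phagocytosis when below 70% of the median above 5 µM.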

Regarding `C[C@@H]1C[C@H]2[C@@H]3C[C@H](F)C4=CC(=O)C=C[C@]4(C)[C@@]3(F)[C@@H](O)C[C@]2(C)[C@@]1(O)C(=O)COC(=O)C(C)(C)C`, the “loss of total cells” value was -8.6% in test [1] (1.39 µM); -21.4% in test [1] (2.78 µM); 0% in test [1] (5.56 µM); -14.1% in test [1] (11.11 µM); -8.2% in test [1] (22.22 µM). Besides, the synaptosome phagocytosis in test [2] (1.39 µM) is 125%; in test [2] (2.78 µM) it was 101%; in test [2] (5.56 µM), 110%; in test [2] (11.11 µM), 131%; in test [2] (22.22 µM), 84.3%.

Turning to `Nc1ccc(S(=O)(=O)Nc2ccnn2-c2ccccc2)cc1` [Sulfaphenazole], the “loss of total cells” value was 9% in test [1] (1.39 µM); 11.9% in test [1] (2.78 µM); 16.7% in test [1] (5.56 µM); -1.3% in test [1] (11.11 µM); 15.2% in test [1] (22.22 µM). Moreover, the synaptosome phagocytosis in test [2] (1.39 µM) is 118%; in test [2] (2.78 µM), 137%; in test [2] (5.56 µM) it was 108%; in test [2] (11.11 µM) it was 108%; in test [2] (22.22 µM) it was 148%.

`NC(=O)c1ccc[n+]([C@@H]2O[C@H](COP(=O)([O-])OP(=O)(O)OC[C@H]3O[C@@H](n4cnc5c(N)ncnc54)[C@H](O)[C@@H]3O)[C@@H](O)[C@H]2O)c1`: the “loss of total cells” value in test [1] (1.39 µM) is -20.7%; in test [1] (2.78 µM), -16.2%; in test [1] (5.56 µM), 11.1%; in test [1] (11.11 µM), 6.3%; in test [1] (22.22 µM), 10.8%. The synaptosome phagocytosis in test [2] (1.39 µM) was 107%; in test [2] (2.78 µM) it was 107%; in test [2] (5.56 µM), 123%; in test [2] (11.11 µM), 131%; in test [2] (22.22 µM) it was 113%.

Turning to `CCN(CC)CCNC(=O)c1ccc(NC(C)=O)cc1` [N-Acetylprocainamide hydrochloride], the “loss of total cells” value is -7.6% in test [1] (1.39 µM); 4.7% in test [1] (2.78 µM); 29% in test [1] (5.56 µM); 36.8% in test [1] (11.11 µM); -22.6% in test [1] (22.22 µM). Also, the synaptosome phagocytosis is 106% in test [2] (1.39 µM); 90.9% in test [2] (2.78 µM); 144% in test [2] (5.56 µM); 81.6% in test [2] (11.11 µM); 106% in test [2] (22.22 µM).

With `CN/C(=N\CCSCc1nc[nH]c1C)NC#N`, the “loss of total cells” value is 15.7% in test [1] (1.39 µM); -35.6% in test [1] (2.78 µM); -20.2% in test [1] (5.56 µM); 8.9% in test [1] (11.11 µM); -7% in test [1] (22.22 µM). For the same compound, the synaptosome phagocytosis in test [2] (1.39 µM) is 113%; in test [2] (2.78 µM), 103%; in test [2] (5.56 µM), 97.1%; in test [2] (11.11 µM) it was 120%; in test [2] (22.22 µM), 91%.

In the case of `CCCCCCCCCCCCCCCCC(C(=O)O)C(O)(CC(=O)O)C(=O)O` (stereo not given), the “loss of total cells” value in test [1] (1.39 µM) was -11.5%; in test [1] (2.78 µM), 7.6%; in test [1] (5.56 µM), 1.5%; in test [1] (11.11 µM), 10.8%; in test [1] (22.22 µM), 21.5%. For the same compound, the synaptosome phagocytosis in test [2] (1.39 µM) was 83.3%; in test [2] (2.78 µM), 94.4%; in test [2] (5.56 µM), 75.7%; in test [2] (11.11 µM), 84.9%; in test [2] (22.22 µM), 113%.

As for `CCOc1ccc(NC(C)=O)cc1`, the “loss of total cells” value is 13.9% in test [1] (1.39 µM); -21.4% in test [1] (2.78 µM); -16.7% in test [1] (5.56 µM); 11.2% in test [1] (11.11 µM); 28.9% in test [1] (22.22 µM). Also, the synaptosome phagocytosis in test [2] (1.39 µM) is 102%; in test [2] (2.78 µM), 109%; in test [2] (5.56 µM), 98.8%; in test [2] (11.11 µM), 104%; in test [2] (22.22 µM), 104%.

As to `CO[C@@H]1[C@@H](OC(N)=O)[C@@H](O)[C@H](Oc2ccc3c(O)c(NC(=O)c4ccc(O)c(CC=C(C)C)c4)c(=O)oc3c2C)OC1(C)C`, the “loss of total cells” value in test [1] (1.39 µM) is 6.6%; in test [1] (2.78 µM), 5.8%; in test [1] (5.56 µM), 21.9%; in test [1] (11.11 µM), 21.1%; in test [1] (22.22 µM) it was 23.8%. The synaptosome phagocytosis was 112% in test [2] (1.39 µM); 106% in test [2] (2.78 µM); 113% in test [2] (5.56 µM); 120% in test [2] (11.11 µM); 112% in test [2] (22.22 µM).

As for `CCCc1nc(C)c2c(O)nc(-c3cc(S(=O)(=O)N4CCN(CC)CC4)ccc3OCC)nn12`, the “loss of total cells” value in test [1] (1.39 µM) is 0.8%; in test [1] (2.78 µM), -18.6%; in test [1] (5.56 µM), 14.7%; in test [1] (11.11 µM) it was 10.9%; in test [1] (22.22 µM), 0.6%. Further, the synaptosome phagocytosis in test [2] (1.39 µM) was 82.3%; in test [2] (2.78 µM), 93.6%; in test [2] (5.56 µM), 108%; in test [2] (11.11 µM), 66.2%; in test [2] (22.22 µM), 96.3%.

As to `CC(C)(Oc1ccc(Cl)cc1)C(=O)O`, the “loss of total cells” value in test [1] (1.39 µM) worked out at 3.2%; in test [1] (2.78 µM), 1.1%; in test [1] (5.56 µM) it was 18.1%; in test [1] (11.11 µM) it was 5.4%; in test [1] (22.22 µM), 30.3%. Further, the synaptosome phagocytosis in test [2] (1.39 µM) is 107%; in test [2] (2.78 µM), 91.6%; in test [2] (5.56 µM), 118%; in test [2] (11.11 µM), 100%; in test [2] (22.22 µM), 120%.
